Some entries share one result that the patent states for a list of compounds.
Legend:
Assay type in all cases: in vivo
Botrytics cinerea = test: Test on the controlling effect against gray mold of cucumber plant; details: cucumber plant (Suyou), foliar application, active-ingredient concentration 200 ppm, application rate 50 mL, 7 days after inoculation
Venturia inaequalis = test: Test on the controlling effect against apple tree scab; details: apple seedling (Ohrin), foliar application, application rate 50 mL, 14 days after inoculation
Puccinia recondita = test: Test on the controlling effect against brown leaf rust of wheat plant; details: wheat plant (Hokushin), foliar application, application rate 50 mL, 7 days after inoculation
[1] = system: Blumeria graminis f. sp. hordei; test: Test on the controlling effect against powdery mildew of barley plant; details: barley plant (Kantoh No. 6), foliar application, application rate 50 mL, 7 days after inoculation
[2] = active-ingredient concentration 10 ppm
[3] = active-ingredient concentration 50 ppm
[4] = active-ingredient concentration 200 ppm

O=C(Nc1ccccc1-c1ccc(F)c(F)c1)c1nccnc1C(F)(F)F [3-21]
10 (100% in protective value): controlling effect assessed according to the criteria of judgment (protective value) (Botrytics cinerea) | controlling effect assessed according to the criteria of judgment (protective value) (Venturia inaequalis; [2]) | controlling effect assessed according to the criteria of judgment (protective value) (Venturia inaequalis; [3]) | controlling effect assessed according to the criteria of judgment (Puccinia recondita; [3]) | controlling effect assessed according to the criteria of judgment (Puccinia recondita; [4]) | controlling effect assessed according to the criteria of judgment [1, 3] | controlling effect assessed according to the criteria of judgment [1, 4]

O=C(Nc1ccccc1-c1ccc(Cl)c(Cl)c1)c1nccnc1C(F)(F)F [3-22]
10 (100% in protective value): controlling effect assessed according to the criteria of judgment (protective value) (Botrytics cinerea) | controlling effect assessed according to the criteria of judgment (protective value) (Venturia inaequalis; [2]) | controlling effect assessed according to the criteria of judgment (protective value) (Venturia inaequalis; [3]) | controlling effect assessed according to the criteria of judgment (Puccinia recondita; [3]) | controlling effect assessed according to the criteria of judgment (Puccinia recondita; [4]) | controlling effect assessed according to the criteria of judgment [1, 3] | controlling effect assessed according to the criteria of judgment [1, 4]

O=C(Nc1ccccc1-c1ccc(Cl)c(F)c1)c1nccnc1C(F)(F)F [3-23]
10 (100% in protective value): controlling effect assessed according to the criteria of judgment (protective value) (Botrytics cinerea) | controlling effect assessed according to the criteria of judgment (protective value) (Venturia inaequalis; [2]) | controlling effect assessed according to the criteria of judgment (protective value) (Venturia inaequalis; [3]) | controlling effect assessed according to the criteria of judgment (Puccinia recondita; [3]) | controlling effect assessed according to the criteria of judgment (Puccinia recondita; [4]) | controlling effect assessed according to the criteria of judgment [1, 3] | controlling effect assessed according to the criteria of judgment [1, 4]

O=C(Nc1ccccc1-c1ccc(F)c(Cl)c1)c1nccnc1C(F)(F)F [3-24]
10 (100% in protective value): controlling effect assessed according to the criteria of judgment (protective value) (Botrytics cinerea) | controlling effect assessed according to the criteria of judgment (protective value) (Venturia inaequalis; [2]) | controlling effect assessed according to the criteria of judgment (protective value) (Venturia inaequalis; [3]) | controlling effect assessed according to the criteria of judgment (Puccinia recondita; [3]) | controlling effect assessed according to the criteria of judgment (Puccinia recondita; [4]) | controlling effect assessed according to the criteria of judgment [1, 3] | controlling effect assessed according to the criteria of judgment [1, 4]

Cc1cc(-c2ccccc2NC(=O)c2nccnc2C(F)(F)F)ccc1F [3-25]
10 (100% in protective value): controlling effect assessed according to the criteria of judgment (protective value) (Botrytics cinerea) | controlling effect assessed according to the criteria of judgment (protective value) (Venturia inaequalis; [2]) | controlling effect assessed according to the criteria of judgment (protective value) (Venturia inaequalis; [3]) | controlling effect assessed according to the criteria of judgment (Puccinia recondita; [3]) | controlling effect assessed according to the criteria of judgment (Puccinia recondita; [4]) | controlling effect assessed according to the criteria of judgment [1, 3] | controlling effect assessed according to the criteria of judgment [1, 4]

Cc1cc(-c2ccccc2NC(=O)c2nccnc2C(F)(F)F)ccc1Cl [3-26]
10 (100% in protective value): controlling effect assessed according to the criteria of judgment (protective value) (Botrytics cinerea) | controlling effect assessed according to the criteria of judgment (protective value) (Venturia inaequalis; [2]) | controlling effect assessed according to the criteria of judgment (protective value) (Venturia inaequalis; [3]) | controlling effect assessed according to the criteria of judgment (Puccinia recondita; [3]) | controlling effect assessed according to the criteria of judgment (Puccinia recondita; [4]) | controlling effect assessed according to the criteria of judgment [1, 3] | controlling effect assessed according to the criteria of judgment [1, 4]
